The list is a part of this screen's results and no random one: it is rich in T/C values a quarter to a half above the control, in often repeated tests (any T/C) and in doses without a T/C. Further doses and runs are listed elsewhere. T/C is the treated group as % of the vehicle group. Some doses have a count of surviving animals in place of a T/C: the source files T/C as zero there, which appears to mark a toxic dose or a test without result, not a measured value. Counts of survivors are from the toxicity check (mostly the fifth day) where no day follows; animals may have died later. Schedule codes are those of the source, read here as Q, the interval in days (D) or hours (H), X, the number of doses. Some structures stand for samples that the source files as different forms (salt, stereo form or complex); doses refer to the form tested. Some doses were run more than once; the results are listed from low to high. For survival time, the PubChem record calls one and a half times the control and up active, and a quarter to a half above the control has no call in these data; cut-offs in other NCI protocols can differ. Some T/C values carry the count of animals alive at the toxicity check (mostly the fifth day); without a count, all were alive then. Brackets with × stand for listed records that agree.
Tested on: L1210 leukemia ip in BDF1 mice, survival T/C
Experiment: NCI In Vivo Anticancer Drug Screen. Data for tumor model L1210 Leukemia (intraperitoneal) in B6D2F1 (BDF1) mice
Settings: higher T/C = longer survival

N=c1ccn2c(n1)OC1C(O)C(CO)OC12 (configuration not stated)
T/C (T/C endpoint: mean survival time, dose: 1.57 mg/kg/injection, schedule: Q03HX024 (ip), vehicle: water): 126 % of control | T/C (T/C endpoint: mean survival time, dose: 50.0 mg/kg/injection, schedule: Q01DX005 (ip), vehicle: saline): 121, 134, 135, 137, 138, 139, 141, 144 (4×), 145, 151 (2×), 154, 156, 157 (3×), 160 (2×), 161, 163, 164, 165, 185 % of control | T/C (T/C endpoint: mean survival time, dose: 50.0 mg/kg/injection, schedule: Q01DX009 (ip), vehicle: saline): 145 % of control | T/C (T/C endpoint: mean survival time, dose: 55.0 mg/kg/injection, schedule: Q04DX003 (ip), vehicle: saline): 136 % of control | T/C (T/C endpoint: mean survival time, dose: 87.0 mg/kg/injection, schedule: Q04DX003 (ip), vehicle: saline, evaluated on day 21): 137 % of control | T/C (T/C endpoint: mean survival time, dose: 87.0 mg/kg/injection, schedule: Q04DX003 (ip), vehicle: saline, evaluated on day 30): 147 % of control | T/C (T/C endpoint: mean survival time, dose: 100.0 mg/kg/injection, schedule: Q01DX005 (ip), vehicle: saline): 125, 137, 141, 146, 150, 153, 155 (2×), 156, 157, 158, 159 (2×), 162 (3×), 163, 167, 168, 177, 178 (2×), 181, 183, 187 [5 of 6 alive], 189 (2×), 200 % of control | T/C (T/C endpoint: mean survival time, dose: 100.0 mg/kg/injection, schedule: Q01DX009 (ip), vehicle: saline, evaluated on day 9): 161 % of control | T/C (T/C endpoint: mean survival time, dose: 100.0 mg/kg/injection, schedule: Q01DX009 (ip), vehicle: saline, evaluated on day 30): 168, 177, 177 [8 of 10 alive], 218 % of control | T/C (T/C endpoint: mean survival time, dose: 200.0 mg/kg/injection, schedule: Q01DX001 (ip), vehicle: water): 132 and 133 % of control | T/C (T/C endpoint: mean survival time, dose: 200.0 mg/kg/injection, schedule: Q01DX005 (ip), vehicle: saline): 156, 157, 166 [5 of 6 alive], 170, 175 (2×), 176, 178 (3×), 180, 181, 182, 183, 187, 188, 189 (2×), 191 (3×), 191 [5 of 6 alive], 193, 203, 208, 219, 261 % of control | T/C (T/C endpoint: mean survival time, dose: 200.0 mg/kg/injection, schedule: Q01DX009 (ip), vehicle: saline, evaluated on day 9): 169 % of control | T/C (T/C endpoint: mean survival time, dose: 200.0 mg/kg/injection, schedule: Q01DX009 (ip), vehicle: saline, evaluated on day 30): 188, 189, 210, 249 % of control | T/C (T/C endpoint: mean survival time, dose: 200.0 mg/kg/injection, schedule: Q04DX003 (ip), vehicle: saline): 134 % of control | T/C (T/C endpoint: mean survival time, dose: 267.0 mg/kg/injection, schedule: Q01DX009 (ip), vehicle: saline): 130 % of control [5 of 6 alive] | T/C (T/C endpoint: mean survival time, dose: 400.0 mg/kg/injection, schedule: Q01DX001 (ip), vehicle: saline): 126, 131, 144 % of control | T/C (T/C endpoint: mean survival time, dose: 400.0 mg/kg/injection, schedule: Q01DX001 (ip), vehicle: water): 138 [9 of 10 alive] and 140 % of control [8 of 10 alive] | T/C (T/C endpoint: mean survival time, dose: 400.0 mg/kg/injection, schedule: Q01DX005 (ip), vehicle: saline): 183, 185 [5 of 6 alive], 188, 191, 194 (2×), 203, 207, 208, 214, 215, 216, 221, 223 (2×), 224, 229, 241, 242, 244, 245, 268, 272, 298, 316 % of control [5 of 6 alive] | T/C (T/C endpoint: mean survival time, dose: 400.0 mg/kg/injection, schedule: Q01DX009 (ip), vehicle: saline): 144 % of control | T/C (T/C endpoint: mean survival time, dose: 800.0 mg/kg/injection, schedule: Q01DX001 (ip), vehicle: saline): 131, 139, 148 % of control | T/C (T/C endpoint: mean survival time, dose: 800.0 mg/kg/injection, schedule: Q01DX001 (ip), vehicle: water): 134 % of control [9 of 10 alive] | survivor count (T/C endpoint: mean survival time, dose: 800.0 mg/kg/injection, schedule: Q01DX009 (ip), vehicle: water): 5 of 10 | T/C (T/C endpoint: mean survival time, dose: 1200.0 mg/kg/injection, schedule: Q01DX001 (ip), vehicle: saline): 143 [5 of 6 alive] and 149 % of control | survivor count (T/C endpoint: mean survival time, dose: 1200.0 mg/kg/injection, schedule: Q01DX001 (ip), vehicle: water): 3 of 10 and 4 of 10 | survivor count (T/C endpoint: mean survival time, dose: 1600.0 mg/kg/injection, schedule: Q01DX001 (ip), vehicle: water): 1 of 10 and 3 of 10 | survivor count (T/C endpoint: mean survival time, dose: 2000.0 mg/kg/injection, schedule: Q01DX001 (ip), vehicle: water): 3 of 10 and 4 of 10 | T/C (T/C endpoint: median survival time, dose: 25.0 mg/kg/injection, schedule: Q03HX008 (oral), vehicle: water): 133 % of control | T/C (T/C endpoint: median survival time, dose: 37.5 mg/kg/injection, schedule: Q01DX009 (ip), vehicle: water, evaluated on day 5): 190 % of control | T/C (T/C endpoint: median survival time, dose: 37.5 mg/kg/injection, schedule: Q01DX009 (ip), vehicle: water, evaluated on day 30): 190 % of control | T/C (T/C endpoint: median survival time, dose: 37.5 mg/kg/injection, schedule: Q01DX009 (ip), vehicle: water, evaluated on day 60): 150 and 188 % of control | T/C (T/C endpoint: median survival time, dose: 39.0 mg/kg/injection, schedule: Q01DX008 (ip), vehicle: water, evaluated on day 7): 127 % of control | T/C (T/C endpoint: median survival time, dose: 39.0 mg/kg/injection, schedule: Q01DX008 (ip), vehicle: water, evaluated on day 60): 127 % of control | T/C (T/C endpoint: median survival time, dose: 39.0 mg/kg/injection, schedule: Q01DX009 (ip), vehicle: water, evaluated on day 5): 169 and 182 % of control | T/C (T/C endpoint: median survival time, dose: 39.0 mg/kg/injection, schedule: Q01DX009 (ip), vehicle: water, evaluated on day 7): 191 % of control | T/C (T/C endpoint: median survival time, dose: 39.0 mg/kg/injection, schedule: Q01DX009 (ip), vehicle: water, evaluated on day 31): 191 % of control | T/C (T/C endpoint: median survival time, dose: 39.0 mg/kg/injection, schedule: Q01DX009 (ip), vehicle: water, evaluated on day 60): 172 and 180 % of control | T/C (T/C endpoint: median survival time, dose: 50.0 mg/kg/injection, schedule: Q01DX009 (oral), vehicle: water): 133 % of control | T/C (T/C endpoint: median survival time, dose: 50.0 mg/kg/injection, schedule: Q03HX008 (ip), vehicle: water): 127 % of control | T/C (T/C endpoint: median survival time, dose: 50.0 mg/kg/injection, schedule: Q03HX008 (oral), vehicle: water): 144 % of control | T/C (T/C endpoint: median survival time, dose: 65.0 mg/kg/injection, schedule: Q01DX008 (ip), vehicle: water, evaluated on day 7): 129 % of control | T/C (T/C endpoint: median survival time, dose: 65.0 mg/kg/injection, schedule: Q01DX008 (ip), vehicle: water, evaluated on day 60): 129 % of control [7 of 8 alive] | T/C (T/C endpoint: median survival time, dose: 65.0 mg/kg/injection, schedule: Q01DX009 (ip), vehicle: water, evaluated on day 5): 186 and 187 % of control | T/C (T/C endpoint: median survival time, dose: 65.0 mg/kg/injection, schedule: Q01DX009 (ip), vehicle: water, evaluated on day 7): 180 and 188 % of control | T/C (T/C endpoint: median survival time, dose: 65.0 mg/kg/injection, schedule: Q01DX009 (ip), vehicle: water, evaluated on day 31): 188 % of control | T/C (T/C endpoint: median survival time, dose: 65.0 mg/kg/injection, schedule: Q01DX009 (ip), vehicle: water, evaluated on day 60): 180 [7 of 8 alive], 185 [7 of 8 alive], 186 % of control | T/C (T/C endpoint: median survival time, dose: 75.0 mg/kg/injection, schedule: Q01DX009 (ip), vehicle: water, evaluated on day 5): 201 % of control | T/C (T/C endpoint: median survival time, dose: 75.0 mg/kg/injection, schedule: Q01DX009 (ip), vehicle: water, evaluated on day 30): 201 % of control | T/C (T/C endpoint: median survival time, dose: 75.0 mg/kg/injection, schedule: Q01DX009 (ip), vehicle: water, evaluated on day 54): 200 % of control | T/C (T/C endpoint: median survival time, dose: 75.0 mg/kg/injection, schedule: Q01DX009 (ip), vehicle: water, evaluated on day 60): 185 and 211 % of control | T/C (T/C endpoint: median survival time, dose: 80.0 mg/kg/injection, schedule: Q01DX001 (ip), vehicle: water): 138 % of control | T/C (T/C endpoint: median survival time, dose: 100.0 mg/kg/injection, schedule: Q01DX005 (ip), vehicle: water): 140 % of control | T/C (T/C endpoint: median survival time, dose: 100.0 mg/kg/injection, schedule: Q01DX009 (ip), vehicle: water, evaluated on day 5): 215 % of control | T/C (T/C endpoint: median survival time, dose: 100.0 mg/kg/injection, schedule: Q01DX009 (ip), vehicle: water, evaluated on day 30): 216 % of control | T/C (T/C endpoint: median survival time, dose: 100.0 mg/kg/injection, schedule: Q01DX009 (ip), vehicle: water, evaluated on day 35): 200 % of control | T/C (T/C endpoint: median survival time, dose: 100.0 mg/kg/injection, schedule: Q01DX009 (ip), vehicle: water, evaluated on day 45): 190 % of control | T/C (T/C endpoint: median survival time, dose: 100.0 mg/kg/injection, schedule: Q01DX009 (ip), vehicle: water, evaluated on day 60): 194, 215 (2×), 231 % of control | T/C (T/C endpoint: median survival time, dose: 100.0 mg/kg/injection, schedule: Q03HX008 (oral), vehicle: water): 127 % of control [6 of 8 alive] | T/C (T/C endpoint: median survival time, dose: 100.0 mg/kg/injection, schedule: Q04DX003 (ip), vehicle: water): 135 % of control | T/C (T/C endpoint: median survival time, dose: 108.0 mg/kg/injection, schedule: Q01DX009 (ip), vehicle: water, evaluated on day 5): 200 and 203 % of control | T/C (T/C endpoint: median survival time, dose: 108.0 mg/kg/injection, schedule: Q01DX009 (ip), vehicle: water, evaluated on day 7): 192 and 208 % of control | T/C (T/C endpoint: median survival time, dose: 108.0 mg/kg/injection, schedule: Q01DX009 (ip), vehicle: water, evaluated on day 27): 244 % of control | T/C (T/C endpoint: median survival time, dose: 108.0 mg/kg/injection, schedule: Q01DX009 (ip), vehicle: water, evaluated on day 30): 195 % of control [7 of 8 alive] | T/C (T/C endpoint: median survival time, dose: 108.0 mg/kg/injection, schedule: Q01DX009 (ip), vehicle: water, evaluated on day 31): 208 % of control | T/C (T/C endpoint: median survival time, dose: 108.0 mg/kg/injection, schedule: Q01DX009 (ip), vehicle: water, evaluated on day 33): 233 % of control | T/C (T/C endpoint: median survival time, dose: 108.0 mg/kg/injection, schedule: Q01DX009 (ip), vehicle: water, evaluated on day 60): 192 and 200 % of control (2×) | T/C (T/C endpoint: median survival time, dose: 150.0 mg/kg/injection, schedule: Q01DX009 (ip), vehicle: water, evaluated on day 5): 237 % of control | T/C (T/C endpoint: median survival time, dose: 150.0 mg/kg/injection, schedule: Q01DX009 (ip), vehicle: water, evaluated on day 30): 237 % of control
